Reference: paper PMC2726290, “Decoding of Methylated Histone H3 Tail by the Pygo-BCL9 Wnt Signaling Complex” (Molecular Cell, 2008)
These are yes or no findings as the source states them, for the method shown.

Target: T1, hPygo1 PHD finger (amino acids 333-402), free (human) (UniProt Q9Y3Y4)
T1 sequence: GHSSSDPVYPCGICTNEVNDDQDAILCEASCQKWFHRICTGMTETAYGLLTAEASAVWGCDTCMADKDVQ
Test: crystal structure; binary PHD-HD1 complexes (hPHD_W366F-HD1, WT1, WT2); vapor diffusion at 19°C; both purified

binding: no binding
Substance: hPygo1 PHD finger (amino acids 333-402), free (from UniProt Q9Y3Y4 333-402) (domain or fragment)
